Assay results as given in the supplement of paper PMC11732987, “Enantioselective OTUD7B fragment discovery through chemoproteomics screening and high-throughput optimisation” (Communications Chemistry, 2025).
The other results are listed elsewhere or left out. The data scatter; read single values as rough.

Sequences of proteins named here, by UniProt entry; tags and fusion partners are left off. A change or cut given only in a name is not applied to a line headed by its entry. Residues count along the entry.
UniProt O43143: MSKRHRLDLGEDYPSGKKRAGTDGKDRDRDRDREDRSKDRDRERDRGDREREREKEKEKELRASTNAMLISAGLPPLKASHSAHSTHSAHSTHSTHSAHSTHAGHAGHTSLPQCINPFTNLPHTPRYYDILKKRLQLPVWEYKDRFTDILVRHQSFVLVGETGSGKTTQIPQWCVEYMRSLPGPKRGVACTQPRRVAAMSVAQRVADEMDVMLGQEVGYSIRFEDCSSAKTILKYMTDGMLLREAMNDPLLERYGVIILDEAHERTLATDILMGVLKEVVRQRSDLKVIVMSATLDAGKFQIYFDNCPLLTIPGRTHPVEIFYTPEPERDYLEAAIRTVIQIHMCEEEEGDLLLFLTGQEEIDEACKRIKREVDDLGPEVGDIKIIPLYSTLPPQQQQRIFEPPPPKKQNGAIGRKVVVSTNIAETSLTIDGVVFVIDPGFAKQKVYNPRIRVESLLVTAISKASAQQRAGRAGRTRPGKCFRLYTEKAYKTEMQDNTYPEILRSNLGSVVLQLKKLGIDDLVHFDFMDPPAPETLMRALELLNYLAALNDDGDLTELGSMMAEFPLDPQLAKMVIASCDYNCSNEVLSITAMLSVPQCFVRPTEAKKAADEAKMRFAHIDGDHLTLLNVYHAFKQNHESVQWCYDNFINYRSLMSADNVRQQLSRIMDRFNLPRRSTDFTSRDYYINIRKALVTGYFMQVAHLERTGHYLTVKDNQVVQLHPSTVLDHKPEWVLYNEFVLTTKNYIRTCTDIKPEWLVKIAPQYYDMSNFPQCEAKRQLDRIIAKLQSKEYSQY
UniProt Q7L7V1: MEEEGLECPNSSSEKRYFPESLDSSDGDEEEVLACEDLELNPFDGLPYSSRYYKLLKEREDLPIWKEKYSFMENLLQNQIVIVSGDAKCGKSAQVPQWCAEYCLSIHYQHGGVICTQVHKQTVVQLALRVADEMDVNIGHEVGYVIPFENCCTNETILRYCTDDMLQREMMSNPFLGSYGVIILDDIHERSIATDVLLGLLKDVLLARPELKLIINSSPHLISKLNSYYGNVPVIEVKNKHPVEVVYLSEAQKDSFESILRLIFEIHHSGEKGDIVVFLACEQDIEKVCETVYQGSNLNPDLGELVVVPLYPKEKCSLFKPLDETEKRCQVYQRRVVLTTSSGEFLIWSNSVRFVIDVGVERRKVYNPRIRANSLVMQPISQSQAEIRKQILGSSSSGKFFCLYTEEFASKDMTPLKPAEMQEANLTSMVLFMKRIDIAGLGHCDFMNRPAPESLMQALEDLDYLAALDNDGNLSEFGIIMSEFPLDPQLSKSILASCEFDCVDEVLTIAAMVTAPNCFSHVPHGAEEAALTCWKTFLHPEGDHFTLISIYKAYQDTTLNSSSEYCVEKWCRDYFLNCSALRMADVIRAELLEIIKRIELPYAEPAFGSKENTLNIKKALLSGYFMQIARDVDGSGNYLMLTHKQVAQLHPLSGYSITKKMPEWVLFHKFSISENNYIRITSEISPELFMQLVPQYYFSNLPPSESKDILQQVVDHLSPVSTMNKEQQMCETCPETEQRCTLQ
UniProt Q9BTZ2, 65-92: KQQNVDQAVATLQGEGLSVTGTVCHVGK
UniProt O75140: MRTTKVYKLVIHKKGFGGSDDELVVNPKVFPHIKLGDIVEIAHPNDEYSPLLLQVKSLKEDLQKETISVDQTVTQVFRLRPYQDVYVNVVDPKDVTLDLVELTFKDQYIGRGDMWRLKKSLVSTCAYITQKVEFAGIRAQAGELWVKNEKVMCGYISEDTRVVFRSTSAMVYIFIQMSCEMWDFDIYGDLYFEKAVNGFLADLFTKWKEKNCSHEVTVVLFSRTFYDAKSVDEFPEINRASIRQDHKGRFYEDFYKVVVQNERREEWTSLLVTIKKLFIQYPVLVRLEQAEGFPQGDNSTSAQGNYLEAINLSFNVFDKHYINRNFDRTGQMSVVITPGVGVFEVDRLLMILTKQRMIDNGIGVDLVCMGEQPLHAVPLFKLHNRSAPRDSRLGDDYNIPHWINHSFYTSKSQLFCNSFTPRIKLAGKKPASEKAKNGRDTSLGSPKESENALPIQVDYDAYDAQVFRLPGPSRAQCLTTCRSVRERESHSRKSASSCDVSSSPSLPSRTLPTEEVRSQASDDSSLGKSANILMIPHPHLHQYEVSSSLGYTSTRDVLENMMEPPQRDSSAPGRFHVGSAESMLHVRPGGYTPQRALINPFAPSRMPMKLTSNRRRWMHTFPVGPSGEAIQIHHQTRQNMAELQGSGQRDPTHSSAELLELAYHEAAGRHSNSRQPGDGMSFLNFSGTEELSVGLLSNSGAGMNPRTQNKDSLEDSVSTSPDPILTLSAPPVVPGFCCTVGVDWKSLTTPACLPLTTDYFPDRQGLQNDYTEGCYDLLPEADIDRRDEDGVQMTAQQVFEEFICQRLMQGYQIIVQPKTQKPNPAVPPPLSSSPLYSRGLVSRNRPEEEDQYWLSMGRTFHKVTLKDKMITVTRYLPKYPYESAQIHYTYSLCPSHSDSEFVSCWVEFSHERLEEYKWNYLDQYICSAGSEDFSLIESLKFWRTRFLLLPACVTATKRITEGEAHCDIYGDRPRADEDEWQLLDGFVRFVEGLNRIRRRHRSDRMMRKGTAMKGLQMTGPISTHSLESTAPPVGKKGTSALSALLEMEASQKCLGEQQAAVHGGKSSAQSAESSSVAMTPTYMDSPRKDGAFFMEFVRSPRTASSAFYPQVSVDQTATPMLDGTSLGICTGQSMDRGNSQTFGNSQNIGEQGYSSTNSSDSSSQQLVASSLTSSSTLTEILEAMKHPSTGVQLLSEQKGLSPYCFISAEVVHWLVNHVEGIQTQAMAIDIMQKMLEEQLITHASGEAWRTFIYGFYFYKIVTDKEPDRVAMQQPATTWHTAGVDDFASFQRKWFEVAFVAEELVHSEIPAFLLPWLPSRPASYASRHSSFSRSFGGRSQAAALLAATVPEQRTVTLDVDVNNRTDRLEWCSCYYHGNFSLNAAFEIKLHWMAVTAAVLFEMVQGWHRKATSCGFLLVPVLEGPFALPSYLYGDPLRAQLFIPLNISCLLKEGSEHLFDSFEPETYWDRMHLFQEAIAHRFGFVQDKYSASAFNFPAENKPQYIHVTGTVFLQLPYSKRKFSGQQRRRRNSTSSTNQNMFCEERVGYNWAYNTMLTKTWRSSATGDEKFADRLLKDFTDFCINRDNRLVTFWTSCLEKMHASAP
UniProt Q9BU89, 184-206: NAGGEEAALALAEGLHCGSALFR
UniProt Q8NDZ4, 155-174: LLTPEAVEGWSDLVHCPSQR
UniProt Q7L8W6: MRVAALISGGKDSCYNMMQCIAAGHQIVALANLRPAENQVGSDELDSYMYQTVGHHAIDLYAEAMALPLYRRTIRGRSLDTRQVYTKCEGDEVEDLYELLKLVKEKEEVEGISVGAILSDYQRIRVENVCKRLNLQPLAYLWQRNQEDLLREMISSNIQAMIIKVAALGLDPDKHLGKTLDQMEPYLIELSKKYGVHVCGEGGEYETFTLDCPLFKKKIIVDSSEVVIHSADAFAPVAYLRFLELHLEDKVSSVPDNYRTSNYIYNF
UniProt Q86Y56, 539-560: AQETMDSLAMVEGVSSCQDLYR
UniProt Q86TI2: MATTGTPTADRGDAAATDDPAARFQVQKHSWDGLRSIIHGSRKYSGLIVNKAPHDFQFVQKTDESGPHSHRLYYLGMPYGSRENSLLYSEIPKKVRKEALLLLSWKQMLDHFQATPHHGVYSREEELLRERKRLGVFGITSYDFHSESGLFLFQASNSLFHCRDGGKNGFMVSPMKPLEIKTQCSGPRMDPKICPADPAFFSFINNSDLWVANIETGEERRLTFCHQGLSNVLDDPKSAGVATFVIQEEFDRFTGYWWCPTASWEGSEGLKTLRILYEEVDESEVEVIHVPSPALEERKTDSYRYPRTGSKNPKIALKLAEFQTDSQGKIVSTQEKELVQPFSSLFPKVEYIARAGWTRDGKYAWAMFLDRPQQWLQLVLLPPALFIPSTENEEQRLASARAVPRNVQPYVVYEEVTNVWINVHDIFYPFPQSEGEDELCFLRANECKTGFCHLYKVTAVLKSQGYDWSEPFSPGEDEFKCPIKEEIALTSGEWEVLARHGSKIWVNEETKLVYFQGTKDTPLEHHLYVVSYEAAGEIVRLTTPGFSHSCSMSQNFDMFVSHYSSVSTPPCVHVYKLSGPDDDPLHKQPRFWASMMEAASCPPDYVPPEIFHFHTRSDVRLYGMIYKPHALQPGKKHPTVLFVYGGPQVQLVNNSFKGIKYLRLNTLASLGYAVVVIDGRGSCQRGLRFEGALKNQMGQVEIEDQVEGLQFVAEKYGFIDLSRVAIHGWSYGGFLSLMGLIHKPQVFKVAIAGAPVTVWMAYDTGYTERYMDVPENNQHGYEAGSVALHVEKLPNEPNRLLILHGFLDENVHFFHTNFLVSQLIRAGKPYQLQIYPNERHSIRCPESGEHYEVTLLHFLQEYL
UniProt O43583: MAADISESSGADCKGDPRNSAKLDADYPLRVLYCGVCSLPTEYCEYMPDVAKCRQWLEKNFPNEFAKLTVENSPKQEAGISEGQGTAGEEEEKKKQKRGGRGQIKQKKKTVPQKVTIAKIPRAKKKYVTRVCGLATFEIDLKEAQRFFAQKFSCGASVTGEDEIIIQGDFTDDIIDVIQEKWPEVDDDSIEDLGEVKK
UniProt Q9NVH1: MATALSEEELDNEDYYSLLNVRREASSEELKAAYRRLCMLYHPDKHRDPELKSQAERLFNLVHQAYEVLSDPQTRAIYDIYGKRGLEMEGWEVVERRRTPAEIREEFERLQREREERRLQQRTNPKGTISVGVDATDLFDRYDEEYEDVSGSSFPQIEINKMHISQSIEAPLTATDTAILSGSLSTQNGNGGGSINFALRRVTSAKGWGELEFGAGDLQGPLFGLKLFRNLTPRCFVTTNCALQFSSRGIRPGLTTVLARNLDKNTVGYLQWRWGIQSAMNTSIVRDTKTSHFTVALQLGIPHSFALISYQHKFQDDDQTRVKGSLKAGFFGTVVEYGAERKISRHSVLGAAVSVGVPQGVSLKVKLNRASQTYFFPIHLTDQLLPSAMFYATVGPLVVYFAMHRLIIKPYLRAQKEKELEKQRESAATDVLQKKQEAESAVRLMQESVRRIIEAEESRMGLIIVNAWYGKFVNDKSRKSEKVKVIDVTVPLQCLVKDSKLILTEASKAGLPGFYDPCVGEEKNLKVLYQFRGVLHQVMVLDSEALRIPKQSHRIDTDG
UniProt Q8IYB7, 201-222: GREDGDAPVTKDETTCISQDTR
UniProt Q7Z478: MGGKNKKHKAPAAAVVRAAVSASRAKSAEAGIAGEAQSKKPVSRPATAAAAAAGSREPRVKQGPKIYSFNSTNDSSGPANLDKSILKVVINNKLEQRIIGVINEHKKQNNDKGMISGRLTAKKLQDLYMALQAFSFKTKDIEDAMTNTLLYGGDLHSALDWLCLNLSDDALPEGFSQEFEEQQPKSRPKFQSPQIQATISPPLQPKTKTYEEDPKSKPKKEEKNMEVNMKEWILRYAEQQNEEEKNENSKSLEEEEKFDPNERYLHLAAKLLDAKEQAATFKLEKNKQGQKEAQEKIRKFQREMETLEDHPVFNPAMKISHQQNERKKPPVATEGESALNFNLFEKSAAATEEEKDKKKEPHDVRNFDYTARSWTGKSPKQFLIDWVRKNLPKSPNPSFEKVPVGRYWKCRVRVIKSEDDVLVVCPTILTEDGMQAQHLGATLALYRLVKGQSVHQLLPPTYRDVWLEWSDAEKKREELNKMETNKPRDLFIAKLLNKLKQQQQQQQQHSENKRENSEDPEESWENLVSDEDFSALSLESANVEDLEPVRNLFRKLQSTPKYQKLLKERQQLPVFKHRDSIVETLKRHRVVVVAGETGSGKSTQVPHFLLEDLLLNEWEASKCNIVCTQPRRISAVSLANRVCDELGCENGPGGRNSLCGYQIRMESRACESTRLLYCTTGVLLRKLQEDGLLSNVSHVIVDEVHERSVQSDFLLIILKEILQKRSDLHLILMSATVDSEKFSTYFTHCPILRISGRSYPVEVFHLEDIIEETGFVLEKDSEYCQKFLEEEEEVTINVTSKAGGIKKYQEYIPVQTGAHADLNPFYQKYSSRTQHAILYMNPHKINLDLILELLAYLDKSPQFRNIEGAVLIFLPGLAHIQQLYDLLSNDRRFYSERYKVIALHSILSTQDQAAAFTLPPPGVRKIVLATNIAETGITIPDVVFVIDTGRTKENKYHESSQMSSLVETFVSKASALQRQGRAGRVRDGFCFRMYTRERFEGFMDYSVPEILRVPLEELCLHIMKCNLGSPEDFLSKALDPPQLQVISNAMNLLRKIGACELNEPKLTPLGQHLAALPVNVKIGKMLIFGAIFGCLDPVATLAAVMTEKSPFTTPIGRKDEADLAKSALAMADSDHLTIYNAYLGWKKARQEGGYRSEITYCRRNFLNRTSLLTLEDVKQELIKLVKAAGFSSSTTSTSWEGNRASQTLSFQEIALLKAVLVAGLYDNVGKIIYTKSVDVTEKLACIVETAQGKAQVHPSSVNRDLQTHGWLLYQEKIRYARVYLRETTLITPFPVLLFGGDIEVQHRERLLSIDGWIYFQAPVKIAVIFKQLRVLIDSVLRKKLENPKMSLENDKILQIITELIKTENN

Compound: ClCC(=O)N[C@H]1CCCc2ccccc12
Assay: log2 mean competition ratio of IA-DTB cysteine labelling (DMSO/compound) (log2 ratio); higher = stronger cysteine engagement by compound
Conditions: 200 µM; treatment time: 4 h; cell line lysate: HEK293T
Method: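 IA-DTB competitive cysteine chemoproteomics in HEK293T RIPA lysate. Lysates were treated with compound 29 or 30 at 50 or 200 µM for 4 h, then IA-DTB (500 µM, 1 h), trypsin-digested, NeutrAvidin-enriched and analysed by diaPASEF. Competition ratio = intensity DMSO / intensity compound (n=4 treated, n=64 DMSO); binding: mean log2 CR ≥ 1 and p ≤ 0.05 plus QC filters. Target is the cysteine site.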

Row | Target | log2 mean competition ratio
1 | DHX15 C750 (UniProt O43143) | 0.035
2 | DHX32 C8 (UniProt Q7L7V1) | -0.0156
3 | DHX30 C309 (UniProt Q7L2E3) | 0.203
4 | DMXL1 C1352 (UniProt Q9Y485) | -0.248
5 | DICER1 C686 (UniProt Q9UPY3) | -0.261
6 | DHRS4 C88 (UniProt Q9BTZ2) | -0.491
7 | DEPDC5 C1053 (UniProt O75140) | -0.103
8 | DHX34 C917 (UniProt Q14147) | 0.147
9 | DPF1 C101 (UniProt Q92782) | 0.271
10 | DOHH C200 (UniProt Q9BU89) | -0.36
11 | DNMT1 C41 (UniProt P26358) | 0.0841
12 | DOCK1 C595 (UniProt Q14185) | -0.0986
13 | DNAJC13 C1770 (UniProt O75165) | -0.152
14 | DIPK2A C170 (UniProt Q8NDZ4) | 0.411
15 | DLGAP5 C448 (UniProt Q15398) | 0.18
16 | DPH6 C130 (UniProt Q7L8W6) | -0.164
17 | DNAAF5 C555 (UniProt Q86Y56) | -0.269
18 | DENND4C C955 (UniProt Q5VZ89) | -0.00346
19 | DPP9 C184 (UniProt Q86TI2) | 0.0485

Reformatted as labelled records: part of the list above.
DEPDC5 C1053 (UniProt O75140)
  log2 mean competition ratio: -0.103
DOHH C200 (UniProt Q9BU89)
  log2 mean competition ratio: -0.36
DPH6 C130 (UniProt Q7L8W6)
  log2 mean competition ratio: -0.164

Further results:

Row | Target | log2 mean competition ratio
20 | DNAJC6 C128 (UniProt O75061) | -0.0647
21 | DENR C132 (UniProt O43583) | -0.0719
22 | DHX30 C484 (UniProt Q7L2E3) | -0.0442
23 | DOCK9 C628 (UniProt Q9BZ29) | 0.242
24 | DENND4B C652 (UniProt O75064) | 0.132
25 | DIPK2A C402 (UniProt Q8NDZ4) | -0.0552
26 | DENND4A C1579 (UniProt Q7Z401) | 0.267
27 | DNAJC11 C518 (UniProt Q9NVH1) | -0.0854
28 | DHX57 C571 (UniProt Q6P158) | -0.218
29 | DIS3L2 C216 (UniProt Q8IYB7) | -0.0485
30 | DNM2 C424 (UniProt P50570) | -0.399
31 | DHX29 C990 (UniProt Q7Z478) | 0.158
32 | DNM3 C453 | -0.0852
33 | DPYSL3 C248 (UniProt Q14195) | -0.283
34 | DNAJC13 C904 (UniProt O75165) | -0.382
35 | DIAPH3 C558 (UniProt Q9NSV4) | 0.15
36 | DNAAF2 C762 (UniProt Q9NVR5) | 0.0286
37 | DHRS1 C10 (UniProt Q96LJ7) | 0.124
